Data as given in PubChem BioAssay AID1224830 (NIAID, 2016)

Purpose: 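Host factors that control LPS-induced TNF expression in human macrophages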 (primary screen)
System: human THP-1 monocytic leukaemia cells, TNF dual-luciferase reporter clone, PMA-differentiated to macrophage-like cells
Reagents: siRNA pool against human genes, 50 nM
Time to read-out: LPS for 4 h, given about 3 days after siRNA transfection
Treatment: bacterial LPS (TLR4 ligand), 10 ng/ml
Read-out: 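Ratio of firefly to renilla light, scaled to the plate median and expressed as a robust z-score per replicate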
Scale: TNF reporter robust z-score: higher = stronger TNF reporter response to LPS
Rule for the call: 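Each well counts as active if its z-score is over 2.8 or under -1.5; controls are left without a call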
Shown is a random part of about 18,000 deposited reagents. About 2,900 of all reagents (16%) count as active. 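Calls are made per well; low scores hint the gene aids the LPS response, high scores that it dampens it.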 Repeated entries: four replicate wells of each siRNA pool.

gene knocked down | TNF reporter robust z-score | Outcome
EPB41L2 | -0.87 | inactive
EPB41L2 | -0.51 | inactive
EPB41L2 | -0.81 | inactive
EPB41L2 | -0.79 | inactive
EIF3E | -0.86 | inactive
EIF3E | -0.16 | inactive
EIF3E | -1.1 | inactive
EIF3E | -0.57 | inactive
CNN3 | 1.79 | inactive
CNN3 | 2 | inactive
CNN3 | 1.59 | inactive
CNN3 | 2.52 | inactive
PGRMC1 | 0.33 | inactive
PGRMC1 | 0.02 | inactive
PGRMC1 | 0.69 | inactive
PGRMC1 | 3.23 | active
IL7 | -0.54 | inactive
IL7 | -0.69 | inactive
IL7 | 0.08 | inactive
IL7 | -0.07 | inactive
ATG16L1 | -0.43 | inactive
ATG16L1 | -0.1 | inactive
ATG16L1 | -0.81 | inactive
ATG16L1 | -0.73 | inactive
IER3IP1 | -1.11 | inactive
IER3IP1 | -0.49 | inactive
IER3IP1 | -0.08 | inactive
IER3IP1 | 0.29 | inactive
FOXD3 | -0.06 | inactive
FOXD3 | 0.08 | inactive
FOXD3 | 0.22 | inactive
FOXD3 | 0.55 | inactive
PCYOX1 | -0.13 | inactive
PCYOX1 | 1.36 | inactive
PCYOX1 | 2.04 | inactive
PCYOX1 | 0.29 | inactive
ZNF14 | 4.25 | active
ZNF14 | 4.57 | active
ZNF14 | 1.02 | inactive
ZNF14 | 1.09 | inactive
EDF1 | 0 | inactive
EDF1 | 0.56 | inactive
EDF1 | -0.44 | inactive
EDF1 | 0.47 | inactive

Continued, starting with the last 9 of the part before.
gene knocked down | TNF reporter robust z-score | Outcome
PCYOX1 | 0.29 | inactive
ZNF14 | 4.25 | active
ZNF14 | 4.57 | active
ZNF14 | 1.02 | inactive
ZNF14 | 1.09 | inactive
EDF1 | 0 | inactive
EDF1 | 0.56 | inactive
EDF1 | -0.44 | inactive
EDF1 | 0.47 | inactive
NIPSNAP3A | -1.07 | inactive
NIPSNAP3A | -0.22 | inactive
NIPSNAP3A | -0.71 | inactive
NIPSNAP3A | 1.82 | inactive
KRT31 | 1.3 | inactive
KRT31 | 1.02 | inactive
KRT31 | 1.43 | inactive
KRT31 | 0.86 | inactive
GNAZ | 1.15 | inactive
GNAZ | 2.77 | inactive
GNAZ | 1.43 | inactive
GNAZ | 2.91 | active
CPXM1 | -0.34 | inactive
CPXM1 | -0.55 | inactive
CPXM1 | -0.75 | inactive
CPXM1 | -0.17 | inactive
TMEM176A | -0.91 | inactive
TMEM176A | -0.45 | inactive
TMEM176A | -0.42 | inactive
TMEM176A | -0.27 | inactive
FHIT | 0.21 | inactive
FHIT | -0.09 | inactive
FHIT | -0.56 | inactive
FHIT | -0.42 | inactive
OR5M3 | -0.95 | inactive
OR5M3 | -0.13 | inactive
OR5M3 | -0.45 | inactive
OR5M3 | -0.76 | inactive
RUNX2 | -1.9 | active
RUNX2 | -1.49 | inactive
RUNX2 | -1.69 | active
RUNX2 | -1.2 | inactive
C9orf152 | 0.87 | inactive
C9orf152 | 0.14 | inactive
C9orf152 | 1.19 | inactive
C9orf152 | 1.13 | inactive
XPNPEP2 | -0.42 | inactive
XPNPEP2 | -0.24 | inactive
XPNPEP2 | -1.78 | active
XPNPEP2 | -0.22 | inactive
PCSK5 | -0.11 | inactive
PCSK5 | 0.17 | inactive
PCSK5 | -0.66 | inactive
PCSK5 | 1.08 | inactive
LYPD6B | 0.23 | inactive
LYPD6B | 0.82 | inactive
LYPD6B | -0.58 | inactive
LYPD6B | -0.47 | inactive
PGM5 | -0.02 | inactive
PGM5 | 0.58 | inactive
PGM5 | -1.15 | inactive
PGM5 | -1.01 | inactive
TRAPPC2L | 0.5 | inactive
TRAPPC2L | 1.62 | inactive
TRAPPC2L | 2.37 | inactive
TRAPPC2L | 3.87 | active
GSKIP | -1.46 | inactive
GSKIP | -1.23 | inactive
GSKIP | -0.81 | inactive
GSKIP | -1.16 | inactive
SLC10A2 | -1.5 | inactive
SLC10A2 | -1.28 | inactive
SLC10A2 | -1.52 | active
SLC10A2 | -0.72 | inactive
DUX1 | -0.95 | inactive
DUX1 | -0.37 | inactive
DUX1 | -0.42 | inactive
DUX1 | 0.16 | inactive
